Experimental data reported in PubChem BioAssay AID330 (DTP/NCI, 2004).
The list shows only some results of the screen, not a fair sample: it gathers tests that were run many times, whatever their T/C, doses with no T/C, and many T/C values between a quarter and a half above the control. Other doses and runs of a compound stand elsewhere. T/C gives the treated animals as a percentage of the vehicle group. Some doses have a count of surviving animals in place of a T/C: the source holds a T/C of zero for them, seemingly a mark for toxic or unscored doses. Some survivor counts are full or nearly so, which does not show that the dose was tolerated: survival well below the control is almost never listed, so the zero probably covers shortened survival too. Survivors were counted at the toxicity check, usually on the fifth day, unless a day is given; later deaths do not show. Schedules are NCI's codes, taken here to give the interval after Q, in days (D) or hours (H), and the number of doses after X. For survival time, the PubChem record calls one and a half times the control and up active, and a quarter to a half above the control has no call in these data; cut-offs in other NCI protocols can differ. Some T/C values carry the count of animals alive at the toxicity check (mostly the fifth day); without a count, all were alive then.

System: P388 leukemia ip, CD2F1 mice, survival T/C
Assay: NCI In Vivo Anticancer Drug Screen. Data for tumor model P388 Leukemia (intraperitoneal) in CD2F1 (CDF1) mice
Conditions: T/C endpoint: median survival time, higher T/C = longer survival
[1] = dose: 200.0 mg/kg/injection, schedule: Q01DX009 (ip), vehicle: saline
[2] = dose: 400.0 mg/kg/injection, schedule: Q01DX009 (ip), vehicle: saline
[3] = dose: 100.0 mg/kg/injection, schedule: Q01DX005 (ip), vehicle: Klucel (hydroxypropylcellulose) (HPC)
[4] = dose: 200.0 mg/kg/injection, schedule: Q01DX005 (ip), vehicle: Klucel (hydroxypropylcellulose) (HPC)
[5] = dose: 240.0 mg/kg/injection, schedule: Q01DX005 (ip), vehicle: Klucel (hydroxypropylcellulose) (HPC)

`CN(C)CCOc1ccccn1` was tested, and the survivor count [1] was 3 of 6 and the survivor count [2] was 0 of 6.
With `O=C(Nc1ncc([N+](=O)[O-])s1)c1cc(Cl)cc(Cl)c1` the survivor count [3] was 0 of 6 and the survivor count [4] was 1 of 6.
`CC1=C(C)C(=Nc2ccc(N(CCCl)CCCl)cc2)C=CC1=O` was tested, and the T/C (dose: 50.0 mg/kg/injection, schedule: Q01DX001 (ip), vehicle: Klucel (hydroxypropylcellulose) (HPC)) was 125 % of control [5 of 6 alive], the T/C (dose: 100.0 mg/kg/injection, schedule: Q01DX001 (ip), vehicle: Klucel (hydroxypropylcellulose) (HPC)) was 140 % of control and the T/C (dose: 200.0 mg/kg/injection, schedule: Q01DX001 (ip), vehicle: Klucel (hydroxypropylcellulose) (HPC)) was 134 % of control. The T/C (dose: 400.0 mg/kg/injection, schedule: Q01DX001 (ip), vehicle: Klucel (hydroxypropylcellulose) (HPC)) was 141 % of control.
With `CSc1cccc(NC(=O)Nc2onc(C)c2C)c1` the survivor count (dose: 100.0 mg/kg/injection, schedule: Q01DX009 (ip), vehicle: Klucel (hydroxypropylcellulose) (HPC)) was 6 of 6 and the survivor count (dose: 200.0 mg/kg/injection, schedule: Q01DX009 (ip), vehicle: Klucel (hydroxypropylcellulose) (HPC)) was 6 of 6.
With `C1CC2CC1CC2CNCC1CC2CCC1C2` (stereo not drawn) the survivor count [3] was 0 of 6 and the survivor count [4] was 0 of 6.
In the case of `S=C1NCCOc2ccccc21`, the survivor count [5] is reported as 1 of 6.
For `c1c[nH]cn1`, the survivor count (dose: 100.0 mg/kg/injection, schedule: Q01DX009 (ip), vehicle: saline) was 5 of 6 and the survivor count [1] was 6 of 6.
`Cc1c(O)cccc1O` was tested, and the survivor count [1] was 0 of 6, the survivor count [2] was 0 of 6 and the survivor count (dose: 600.0 mg/kg/injection, schedule: Q01DX009 (ip), vehicle: saline) was 0 of 6.
In the case of `COc1cccc(/C=C/C(C)=N/NC(N)=S)c1`, the survivor count (dose: 200.0 mg/kg/injection, schedule: Q01DX005 (ip), vehicle: saline with Tween-80) is reported as 0 of 6.
For `CCc1cccc2c(NCCCCCCNc3c4ccccc4nc4c(CC)cccc34)c3ccccc3nc12`, the T/C (dose: 10.0 mg/kg/injection, schedule: Q01DX009 (ip), vehicle: other) was 128 % of control and the survivor count (dose: 20.0 mg/kg/injection, schedule: Q01DX009 (ip), vehicle: other) was 6 of 6.
In the case of `Clc1cc2c(c(CSC3=NCN(CC4CC4)CN3)c1)OCOC2`, the survivor count (dose: 120.0 mg/kg/injection, schedule: Q01DX005 (ip), vehicle: Klucel (hydroxypropylcellulose) (HPC)) is reported as 0 of 6 and the survivor count [5] is reported as 0 of 6.
With `[Cl][Mn][Cl].[NH-]NP(=S)(N[NH-])Oc1ccccc1.[NH-]NP(=S)(N[NH-])Oc1ccccc1` the survivor count (dose: 100.0 mg/kg/injection, schedule: Q01DX005 (ip), vehicle: saline) was 0 of 5 and the survivor count (dose: 200.0 mg/kg/injection, schedule: Q01DX005 (ip), vehicle: saline) was 0 of 5.
In the case of `COc1cc(C2C(C(C)=O)=C(C)Oc3cc4c(cc32)OCO4)cc(OC)c1O` (stereo not drawn), the survivor count (dose: 120.0 mg/kg/injection, schedule: Q01DX005 (ip), vehicle: saline with Tween-80) is reported as 6 of 6 and the survivor count (dose: 240.0 mg/kg/injection, schedule: Q01DX005 (ip), vehicle: saline with Tween-80) is reported as 6 of 6.
For `Oc1ccc(C2(c3ccc(O)c(Cl)c3)CC3CCC2C3)cc1Cl` (stereo not drawn), the T/C (dose: 6.25 mg/kg/injection, schedule: Q01DX009 (ip), vehicle: saline with Tween-80) was 126 % of control, the survivor count (dose: 50.0 mg/kg/injection, schedule: Q01DX009 (ip), vehicle: saline with Tween-80) was 6 of 6 and the survivor count (dose: 100.0 mg/kg/injection, schedule: Q01DX009 (ip), vehicle: saline with Tween-80) was 5 of 6. For the same compound, the survivor count (dose: 200.0 mg/kg/injection, schedule: Q01DX009 (ip), vehicle: saline with Tween-80) was 5 of 6.
`CCOC(=O)CCOc1ccccc1N(CCCl)CCCl` was tested, and the T/C (dose: 8.0 mg/kg/injection, schedule: Q04DX003 (ip), vehicle: saline sonified) was 131 % of control, the T/C (dose: 12.0 mg/kg/injection, schedule: Q04DX003 (ip), vehicle: saline sonified) was 131 % of control and the T/C (dose: 12.5 mg/kg/injection, schedule: Q04DX003 (ip), vehicle: saline with Tween-80) was 140 % of control. The T/C (dose: 18.0 mg/kg/injection, schedule: Q04DX003 (ip), vehicle: saline sonified) was 136 % of control, the survivor count (dose: 25.0 mg/kg/injection, schedule: Q04DX003 (ip), vehicle: saline with Tween-80) was 3 of 6 and the survivor count (dose: 50.0 mg/kg/injection, schedule: Q04DX003 (ip), vehicle: saline with Tween-80) was 2 of 6. The survivor count (dose: 100.0 mg/kg/injection, schedule: Q04DX003 (ip), vehicle: saline with Tween-80) was 0 of 6.
